Experimental data published in paper PMC11339278 (2024).
Substitutions are numbered along the chain they refer to. No constants are given. Whether binding was seen depends on the method and setting. Binding seen in cells or lysates may run through a third protein. Some entries that bind do so weakly or less than the wild type. Sequences can lack the tags named with a protein.

By UniProt entry, the sequences of proteins in these tests, tags left out. Residues count along the entry.
UniProt P05067, residues 18-770: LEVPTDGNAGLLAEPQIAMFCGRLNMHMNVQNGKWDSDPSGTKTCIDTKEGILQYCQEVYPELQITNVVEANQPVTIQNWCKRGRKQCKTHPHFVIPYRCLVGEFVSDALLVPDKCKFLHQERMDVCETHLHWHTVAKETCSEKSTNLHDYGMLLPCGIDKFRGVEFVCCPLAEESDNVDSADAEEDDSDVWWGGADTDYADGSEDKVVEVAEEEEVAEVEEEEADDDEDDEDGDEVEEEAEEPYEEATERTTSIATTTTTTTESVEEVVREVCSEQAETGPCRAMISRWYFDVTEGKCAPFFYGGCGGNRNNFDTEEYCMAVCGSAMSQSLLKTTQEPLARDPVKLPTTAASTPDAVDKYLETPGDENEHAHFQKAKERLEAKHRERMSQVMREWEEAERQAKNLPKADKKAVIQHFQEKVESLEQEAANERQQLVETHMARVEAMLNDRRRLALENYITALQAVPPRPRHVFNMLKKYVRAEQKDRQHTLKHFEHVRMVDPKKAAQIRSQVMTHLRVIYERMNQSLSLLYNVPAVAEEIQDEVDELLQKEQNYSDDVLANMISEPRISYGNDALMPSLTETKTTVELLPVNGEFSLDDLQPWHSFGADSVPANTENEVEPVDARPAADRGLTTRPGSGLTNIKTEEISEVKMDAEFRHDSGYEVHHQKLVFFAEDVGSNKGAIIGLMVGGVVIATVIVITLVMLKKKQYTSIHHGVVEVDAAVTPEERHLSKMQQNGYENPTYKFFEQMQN
UniProt P98164, residues 26-4655: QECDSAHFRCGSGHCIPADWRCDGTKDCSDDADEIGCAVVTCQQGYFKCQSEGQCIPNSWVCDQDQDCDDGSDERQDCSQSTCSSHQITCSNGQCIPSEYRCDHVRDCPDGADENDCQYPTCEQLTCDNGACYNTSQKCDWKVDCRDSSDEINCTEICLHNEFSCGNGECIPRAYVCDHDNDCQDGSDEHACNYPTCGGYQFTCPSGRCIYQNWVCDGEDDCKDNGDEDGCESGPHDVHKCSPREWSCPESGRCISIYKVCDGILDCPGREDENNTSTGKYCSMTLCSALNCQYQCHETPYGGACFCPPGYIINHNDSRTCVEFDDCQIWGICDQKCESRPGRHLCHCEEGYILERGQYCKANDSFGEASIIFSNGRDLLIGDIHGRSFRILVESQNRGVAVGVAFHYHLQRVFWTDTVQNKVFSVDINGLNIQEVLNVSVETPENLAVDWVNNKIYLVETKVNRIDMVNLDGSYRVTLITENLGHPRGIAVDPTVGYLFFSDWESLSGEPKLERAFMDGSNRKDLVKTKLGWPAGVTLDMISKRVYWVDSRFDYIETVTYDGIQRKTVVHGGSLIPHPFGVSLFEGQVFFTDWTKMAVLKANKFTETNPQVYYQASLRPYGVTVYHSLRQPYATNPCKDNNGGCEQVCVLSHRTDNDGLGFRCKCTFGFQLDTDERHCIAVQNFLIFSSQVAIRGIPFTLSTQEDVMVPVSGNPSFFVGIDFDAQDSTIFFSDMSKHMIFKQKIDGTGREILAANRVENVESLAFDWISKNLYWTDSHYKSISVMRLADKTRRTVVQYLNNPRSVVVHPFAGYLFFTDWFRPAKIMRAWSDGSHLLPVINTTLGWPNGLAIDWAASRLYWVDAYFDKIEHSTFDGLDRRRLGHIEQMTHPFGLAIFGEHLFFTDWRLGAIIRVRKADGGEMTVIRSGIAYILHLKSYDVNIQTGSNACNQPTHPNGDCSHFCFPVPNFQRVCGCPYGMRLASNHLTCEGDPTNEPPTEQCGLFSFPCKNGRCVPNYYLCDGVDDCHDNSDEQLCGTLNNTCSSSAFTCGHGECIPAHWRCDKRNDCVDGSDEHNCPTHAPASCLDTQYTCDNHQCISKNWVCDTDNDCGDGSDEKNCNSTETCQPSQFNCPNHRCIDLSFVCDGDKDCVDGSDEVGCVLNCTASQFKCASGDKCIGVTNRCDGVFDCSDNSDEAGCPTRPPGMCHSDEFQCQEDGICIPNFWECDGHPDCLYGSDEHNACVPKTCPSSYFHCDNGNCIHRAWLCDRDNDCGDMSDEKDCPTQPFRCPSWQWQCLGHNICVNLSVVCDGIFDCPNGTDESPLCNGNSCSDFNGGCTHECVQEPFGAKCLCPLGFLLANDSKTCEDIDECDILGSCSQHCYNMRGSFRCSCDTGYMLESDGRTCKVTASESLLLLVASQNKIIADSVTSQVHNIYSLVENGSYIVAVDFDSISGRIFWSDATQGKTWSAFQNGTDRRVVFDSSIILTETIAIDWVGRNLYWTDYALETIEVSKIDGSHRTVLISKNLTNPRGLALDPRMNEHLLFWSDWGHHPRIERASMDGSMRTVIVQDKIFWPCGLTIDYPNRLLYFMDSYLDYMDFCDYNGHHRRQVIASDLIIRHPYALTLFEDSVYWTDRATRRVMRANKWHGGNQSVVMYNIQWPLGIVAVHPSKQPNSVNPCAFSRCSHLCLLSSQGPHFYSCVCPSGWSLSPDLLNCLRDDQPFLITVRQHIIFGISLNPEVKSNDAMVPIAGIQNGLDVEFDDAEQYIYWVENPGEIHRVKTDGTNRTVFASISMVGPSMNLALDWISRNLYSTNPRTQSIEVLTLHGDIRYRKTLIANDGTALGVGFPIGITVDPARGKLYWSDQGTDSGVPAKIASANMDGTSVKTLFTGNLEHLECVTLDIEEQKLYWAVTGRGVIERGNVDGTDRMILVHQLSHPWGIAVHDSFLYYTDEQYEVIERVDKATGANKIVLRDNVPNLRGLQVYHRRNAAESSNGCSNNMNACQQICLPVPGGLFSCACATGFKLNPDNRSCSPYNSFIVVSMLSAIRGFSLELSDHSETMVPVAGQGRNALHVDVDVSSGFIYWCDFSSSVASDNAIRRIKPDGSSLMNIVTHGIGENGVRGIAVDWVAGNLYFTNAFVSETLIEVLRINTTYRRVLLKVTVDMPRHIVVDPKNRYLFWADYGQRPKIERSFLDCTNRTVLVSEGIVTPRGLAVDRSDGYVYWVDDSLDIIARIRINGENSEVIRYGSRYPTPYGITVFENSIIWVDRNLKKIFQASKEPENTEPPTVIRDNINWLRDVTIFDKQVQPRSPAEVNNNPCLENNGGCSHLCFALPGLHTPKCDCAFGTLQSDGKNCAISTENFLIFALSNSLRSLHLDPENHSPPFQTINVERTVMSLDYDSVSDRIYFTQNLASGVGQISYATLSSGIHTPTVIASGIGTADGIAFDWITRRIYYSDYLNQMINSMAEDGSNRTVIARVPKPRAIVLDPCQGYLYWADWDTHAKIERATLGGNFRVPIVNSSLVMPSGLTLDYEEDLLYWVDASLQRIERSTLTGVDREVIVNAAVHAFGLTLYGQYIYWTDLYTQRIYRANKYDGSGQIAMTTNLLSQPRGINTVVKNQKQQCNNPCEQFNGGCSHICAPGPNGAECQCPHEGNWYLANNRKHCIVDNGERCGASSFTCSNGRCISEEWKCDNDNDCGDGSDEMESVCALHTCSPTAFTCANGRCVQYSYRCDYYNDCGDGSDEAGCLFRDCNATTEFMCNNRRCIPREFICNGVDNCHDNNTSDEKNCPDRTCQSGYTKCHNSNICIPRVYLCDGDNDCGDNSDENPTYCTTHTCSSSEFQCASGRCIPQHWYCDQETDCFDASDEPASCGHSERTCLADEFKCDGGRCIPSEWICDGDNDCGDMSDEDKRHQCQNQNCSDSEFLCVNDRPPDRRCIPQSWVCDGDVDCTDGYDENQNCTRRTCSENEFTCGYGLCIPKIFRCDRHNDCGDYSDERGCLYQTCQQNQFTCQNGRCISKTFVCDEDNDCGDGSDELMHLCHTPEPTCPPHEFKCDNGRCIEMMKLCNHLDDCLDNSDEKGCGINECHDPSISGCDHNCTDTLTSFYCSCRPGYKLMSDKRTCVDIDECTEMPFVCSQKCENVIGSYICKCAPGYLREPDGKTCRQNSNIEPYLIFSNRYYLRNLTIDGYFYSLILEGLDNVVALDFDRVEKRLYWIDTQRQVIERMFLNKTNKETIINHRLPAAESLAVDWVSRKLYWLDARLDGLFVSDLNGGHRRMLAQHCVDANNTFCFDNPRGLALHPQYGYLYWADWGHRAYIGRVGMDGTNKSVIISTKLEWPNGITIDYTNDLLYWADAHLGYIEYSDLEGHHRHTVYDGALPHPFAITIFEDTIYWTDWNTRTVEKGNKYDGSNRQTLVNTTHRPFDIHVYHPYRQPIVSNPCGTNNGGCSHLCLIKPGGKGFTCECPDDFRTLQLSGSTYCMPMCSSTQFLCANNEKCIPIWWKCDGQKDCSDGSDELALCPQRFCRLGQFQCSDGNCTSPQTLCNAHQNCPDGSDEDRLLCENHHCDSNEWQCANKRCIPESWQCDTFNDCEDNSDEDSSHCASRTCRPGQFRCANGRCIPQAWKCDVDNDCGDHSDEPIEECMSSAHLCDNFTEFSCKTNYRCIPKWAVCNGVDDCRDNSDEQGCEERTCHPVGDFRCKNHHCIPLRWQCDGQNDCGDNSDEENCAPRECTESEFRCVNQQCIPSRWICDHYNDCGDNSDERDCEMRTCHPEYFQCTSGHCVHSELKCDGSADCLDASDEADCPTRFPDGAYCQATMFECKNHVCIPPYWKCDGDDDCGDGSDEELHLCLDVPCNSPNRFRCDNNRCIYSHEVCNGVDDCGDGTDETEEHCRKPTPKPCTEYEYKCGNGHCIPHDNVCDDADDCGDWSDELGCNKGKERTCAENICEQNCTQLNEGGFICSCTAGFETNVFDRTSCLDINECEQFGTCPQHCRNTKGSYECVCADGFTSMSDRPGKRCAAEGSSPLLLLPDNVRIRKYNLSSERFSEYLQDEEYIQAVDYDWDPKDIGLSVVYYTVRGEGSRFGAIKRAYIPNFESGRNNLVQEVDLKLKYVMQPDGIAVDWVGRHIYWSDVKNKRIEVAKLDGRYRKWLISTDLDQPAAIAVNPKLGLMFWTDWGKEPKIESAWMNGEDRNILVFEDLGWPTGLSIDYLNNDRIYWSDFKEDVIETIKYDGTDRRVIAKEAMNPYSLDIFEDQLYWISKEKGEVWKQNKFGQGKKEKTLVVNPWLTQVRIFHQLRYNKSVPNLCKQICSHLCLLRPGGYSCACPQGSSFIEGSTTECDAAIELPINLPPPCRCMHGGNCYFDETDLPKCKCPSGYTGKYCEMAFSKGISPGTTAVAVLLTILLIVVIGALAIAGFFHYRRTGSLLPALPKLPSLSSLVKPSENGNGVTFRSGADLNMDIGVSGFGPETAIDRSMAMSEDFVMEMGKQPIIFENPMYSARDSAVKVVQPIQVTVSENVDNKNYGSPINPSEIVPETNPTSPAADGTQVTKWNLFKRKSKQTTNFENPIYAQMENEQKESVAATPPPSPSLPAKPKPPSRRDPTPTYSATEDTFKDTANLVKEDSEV

Legend:
Experiment in all cases: co-IP; GFP-nanotrap of GFP-SNX17 or its mutants from transiently transfected HEK293T cells, endogenous partners; lysis in 0.5% NP-40, 50 mM Tris pH 7.5 in ddH2O; quantitative western blot
GFP-SNX17(F462A) (human) = biological target: T1, GFP-SNX17(F462A) (human) (UniProt Q15036)
T1 sequence: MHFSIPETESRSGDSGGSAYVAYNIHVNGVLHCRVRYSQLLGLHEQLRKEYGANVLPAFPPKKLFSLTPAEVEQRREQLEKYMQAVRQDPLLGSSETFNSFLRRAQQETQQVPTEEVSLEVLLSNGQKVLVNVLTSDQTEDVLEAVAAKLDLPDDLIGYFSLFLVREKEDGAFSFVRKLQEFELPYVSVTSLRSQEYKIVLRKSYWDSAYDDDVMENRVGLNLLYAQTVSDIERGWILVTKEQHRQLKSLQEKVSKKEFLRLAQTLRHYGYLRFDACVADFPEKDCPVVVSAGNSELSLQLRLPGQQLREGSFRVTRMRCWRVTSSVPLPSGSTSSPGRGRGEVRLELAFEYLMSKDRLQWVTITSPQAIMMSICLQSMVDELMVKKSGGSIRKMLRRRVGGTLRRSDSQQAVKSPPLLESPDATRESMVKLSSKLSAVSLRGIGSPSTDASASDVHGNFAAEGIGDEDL

GFP-SNX17(F462E) (human) = biological target: T2, GFP-SNX17(F462E) (human) (UniProt Q15036)
T2 sequence: T1 sequence with A462E

[1] = biological target: T3, GFP-SNX17(NFAF-AAAA) (human) (UniProt Q15036)
T3 sequence: T1 sequence with N459A, F460A

[2] = biological target: T4, GFP-tagged SNX17(M384E) (human) (UniProt Q15036)
T4 sequence: T1 sequence with M384E, A462F

[3] = biological target: T5, GFP-tagged SNX17(V380D) (human) (UniProt Q15036)
T5 sequence: T1 sequence with V380D, A462F

[4] = biological target: T6, GFP-tagged SNX17(W321A) (human) (UniProt Q15036)
T6 sequence: T1 sequence with W321A, A462F

Row | binding (GFP-SNX17(F462A) (human)) | binding (GFP-SNX17(F462E) (human)) | binding [1] | binding [2] | binding [3] | binding [4] | Substance
1 | binds | binds | binds | – | – | – | APP, endogenous (from UniProt P05067 18-770)
2 | binds | binds | binds | binds | binds | binds | LRP1, endogenous (from UniProt Q07954 20-4544) (receptor)
3 | binds | binds | binds | – | – | – | LRP2, endogenous (from UniProt P98164 26-4655) (receptor)
